# Assay results published in PubChem BioAssay (EPA / NIEHS).
# Chains of the proteins cited; added tags and fusions are not shown. Lines headed by an entry give the natural chain unless they say otherwise; changes in a name come on top.
# UniProt Q96RI1: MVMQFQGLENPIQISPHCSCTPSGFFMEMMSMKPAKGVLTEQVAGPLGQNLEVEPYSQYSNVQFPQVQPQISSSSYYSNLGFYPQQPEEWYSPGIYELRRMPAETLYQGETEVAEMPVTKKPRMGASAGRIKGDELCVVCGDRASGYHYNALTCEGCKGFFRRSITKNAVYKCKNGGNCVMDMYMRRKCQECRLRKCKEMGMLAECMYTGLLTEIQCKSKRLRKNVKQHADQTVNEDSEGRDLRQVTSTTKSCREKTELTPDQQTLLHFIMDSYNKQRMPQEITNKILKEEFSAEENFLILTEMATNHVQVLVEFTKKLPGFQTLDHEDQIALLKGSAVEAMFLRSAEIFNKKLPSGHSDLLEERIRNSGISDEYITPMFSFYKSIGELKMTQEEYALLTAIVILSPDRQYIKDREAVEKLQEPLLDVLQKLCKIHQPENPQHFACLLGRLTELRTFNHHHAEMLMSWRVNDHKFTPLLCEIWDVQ
# UniProt Q13133, whole entry, looked up: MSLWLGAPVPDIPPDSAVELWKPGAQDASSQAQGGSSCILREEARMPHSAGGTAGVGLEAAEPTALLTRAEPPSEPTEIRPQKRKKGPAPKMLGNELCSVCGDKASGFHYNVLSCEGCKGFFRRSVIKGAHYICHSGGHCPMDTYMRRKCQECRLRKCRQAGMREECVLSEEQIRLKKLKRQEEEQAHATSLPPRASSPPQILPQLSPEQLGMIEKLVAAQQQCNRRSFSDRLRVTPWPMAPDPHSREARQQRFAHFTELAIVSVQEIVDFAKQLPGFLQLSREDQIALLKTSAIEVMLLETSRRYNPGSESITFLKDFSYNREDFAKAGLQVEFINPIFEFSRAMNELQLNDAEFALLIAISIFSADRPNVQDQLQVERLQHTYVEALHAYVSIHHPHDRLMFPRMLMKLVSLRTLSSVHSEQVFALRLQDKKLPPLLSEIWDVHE
# UniProt P41235: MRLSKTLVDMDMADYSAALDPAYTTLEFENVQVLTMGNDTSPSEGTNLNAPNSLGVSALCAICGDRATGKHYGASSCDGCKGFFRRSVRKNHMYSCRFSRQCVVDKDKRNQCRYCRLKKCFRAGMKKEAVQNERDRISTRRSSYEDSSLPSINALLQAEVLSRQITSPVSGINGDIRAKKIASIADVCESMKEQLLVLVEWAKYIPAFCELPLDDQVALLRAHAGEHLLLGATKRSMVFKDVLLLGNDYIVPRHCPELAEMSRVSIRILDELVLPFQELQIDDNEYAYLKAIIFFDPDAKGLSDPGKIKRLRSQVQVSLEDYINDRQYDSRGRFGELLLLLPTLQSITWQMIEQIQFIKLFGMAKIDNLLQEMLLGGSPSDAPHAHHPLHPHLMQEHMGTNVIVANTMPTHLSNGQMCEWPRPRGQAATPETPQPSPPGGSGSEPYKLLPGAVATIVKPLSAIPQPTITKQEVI
# UniProt P10826, whole entry, looked up: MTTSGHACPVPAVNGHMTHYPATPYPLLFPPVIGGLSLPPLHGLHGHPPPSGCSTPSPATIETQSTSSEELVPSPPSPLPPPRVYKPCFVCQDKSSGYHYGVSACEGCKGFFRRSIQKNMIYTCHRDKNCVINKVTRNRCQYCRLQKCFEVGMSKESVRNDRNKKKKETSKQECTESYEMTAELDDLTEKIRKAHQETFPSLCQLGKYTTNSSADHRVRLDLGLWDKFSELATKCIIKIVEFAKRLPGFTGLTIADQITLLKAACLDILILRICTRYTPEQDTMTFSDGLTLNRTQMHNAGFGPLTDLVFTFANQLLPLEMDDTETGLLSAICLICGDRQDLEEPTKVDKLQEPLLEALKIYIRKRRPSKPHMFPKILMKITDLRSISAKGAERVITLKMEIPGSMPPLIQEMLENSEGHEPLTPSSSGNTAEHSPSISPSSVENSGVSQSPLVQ
# UniProt P10276, whole entry, looked up: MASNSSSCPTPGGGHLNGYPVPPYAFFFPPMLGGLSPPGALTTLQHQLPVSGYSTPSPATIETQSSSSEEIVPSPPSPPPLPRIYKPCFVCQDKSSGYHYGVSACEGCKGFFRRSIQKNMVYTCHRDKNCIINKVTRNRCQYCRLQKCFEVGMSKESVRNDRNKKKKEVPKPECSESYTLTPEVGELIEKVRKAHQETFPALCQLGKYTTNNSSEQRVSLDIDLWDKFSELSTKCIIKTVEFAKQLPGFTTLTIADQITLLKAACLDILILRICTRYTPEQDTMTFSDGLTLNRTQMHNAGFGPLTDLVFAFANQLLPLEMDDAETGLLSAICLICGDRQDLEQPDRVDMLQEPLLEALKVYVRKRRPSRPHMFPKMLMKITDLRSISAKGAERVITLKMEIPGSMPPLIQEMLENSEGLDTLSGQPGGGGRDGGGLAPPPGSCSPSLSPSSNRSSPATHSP
# UniProt P10275: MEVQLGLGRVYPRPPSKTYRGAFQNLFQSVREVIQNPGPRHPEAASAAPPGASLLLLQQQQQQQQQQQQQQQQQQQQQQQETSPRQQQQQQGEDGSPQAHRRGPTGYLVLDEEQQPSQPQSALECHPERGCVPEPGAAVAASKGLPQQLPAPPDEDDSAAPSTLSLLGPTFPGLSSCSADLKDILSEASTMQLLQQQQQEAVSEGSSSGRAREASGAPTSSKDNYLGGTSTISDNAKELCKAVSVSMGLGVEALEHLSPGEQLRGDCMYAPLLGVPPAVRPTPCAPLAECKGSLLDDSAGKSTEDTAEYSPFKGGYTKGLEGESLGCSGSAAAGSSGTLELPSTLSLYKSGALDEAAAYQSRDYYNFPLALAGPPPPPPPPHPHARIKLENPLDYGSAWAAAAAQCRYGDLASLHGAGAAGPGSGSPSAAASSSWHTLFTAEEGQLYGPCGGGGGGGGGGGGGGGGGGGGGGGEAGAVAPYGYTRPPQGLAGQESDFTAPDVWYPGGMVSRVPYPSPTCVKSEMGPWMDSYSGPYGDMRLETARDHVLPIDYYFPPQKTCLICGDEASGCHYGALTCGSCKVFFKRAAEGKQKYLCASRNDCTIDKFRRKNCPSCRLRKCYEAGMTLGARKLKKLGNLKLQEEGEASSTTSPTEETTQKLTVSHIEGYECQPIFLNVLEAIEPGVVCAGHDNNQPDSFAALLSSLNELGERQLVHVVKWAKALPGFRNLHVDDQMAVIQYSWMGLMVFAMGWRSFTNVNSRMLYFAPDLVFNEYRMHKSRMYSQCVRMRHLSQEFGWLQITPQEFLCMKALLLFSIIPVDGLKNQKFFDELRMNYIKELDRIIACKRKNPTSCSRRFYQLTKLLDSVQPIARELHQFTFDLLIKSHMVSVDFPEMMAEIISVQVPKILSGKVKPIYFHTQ
# UniProt P62508: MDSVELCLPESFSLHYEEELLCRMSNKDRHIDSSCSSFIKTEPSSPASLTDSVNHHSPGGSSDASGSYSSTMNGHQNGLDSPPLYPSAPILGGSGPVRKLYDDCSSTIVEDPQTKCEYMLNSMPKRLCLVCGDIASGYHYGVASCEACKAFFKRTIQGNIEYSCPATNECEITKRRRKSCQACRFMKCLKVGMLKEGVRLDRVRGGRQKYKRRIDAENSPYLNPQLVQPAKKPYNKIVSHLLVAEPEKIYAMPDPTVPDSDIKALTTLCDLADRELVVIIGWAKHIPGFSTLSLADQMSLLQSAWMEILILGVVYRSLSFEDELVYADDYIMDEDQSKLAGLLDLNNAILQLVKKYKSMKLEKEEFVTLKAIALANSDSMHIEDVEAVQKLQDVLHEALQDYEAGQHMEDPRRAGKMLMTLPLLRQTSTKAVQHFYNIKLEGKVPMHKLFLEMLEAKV
# UniProt P04150: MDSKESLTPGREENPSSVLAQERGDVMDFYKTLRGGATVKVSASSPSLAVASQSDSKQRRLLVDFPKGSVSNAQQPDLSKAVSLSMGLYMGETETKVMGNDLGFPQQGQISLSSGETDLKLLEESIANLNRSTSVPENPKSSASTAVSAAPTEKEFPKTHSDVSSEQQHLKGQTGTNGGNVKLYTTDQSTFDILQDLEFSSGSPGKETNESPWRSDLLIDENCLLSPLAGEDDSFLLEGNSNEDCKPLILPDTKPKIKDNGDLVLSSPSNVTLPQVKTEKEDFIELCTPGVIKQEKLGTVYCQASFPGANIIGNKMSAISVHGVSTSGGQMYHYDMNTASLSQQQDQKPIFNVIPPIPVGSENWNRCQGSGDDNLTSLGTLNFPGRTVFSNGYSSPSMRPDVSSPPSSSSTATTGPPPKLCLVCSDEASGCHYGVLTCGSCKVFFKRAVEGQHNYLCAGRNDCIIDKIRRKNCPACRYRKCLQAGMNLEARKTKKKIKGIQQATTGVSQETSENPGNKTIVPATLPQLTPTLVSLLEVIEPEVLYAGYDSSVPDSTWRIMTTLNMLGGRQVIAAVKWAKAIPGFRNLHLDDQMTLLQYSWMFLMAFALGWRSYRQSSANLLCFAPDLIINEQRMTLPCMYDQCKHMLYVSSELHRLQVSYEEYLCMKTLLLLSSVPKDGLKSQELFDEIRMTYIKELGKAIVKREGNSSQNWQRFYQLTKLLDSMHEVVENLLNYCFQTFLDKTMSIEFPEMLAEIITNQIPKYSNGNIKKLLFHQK
# UniProt P43354, whole entry, looked up: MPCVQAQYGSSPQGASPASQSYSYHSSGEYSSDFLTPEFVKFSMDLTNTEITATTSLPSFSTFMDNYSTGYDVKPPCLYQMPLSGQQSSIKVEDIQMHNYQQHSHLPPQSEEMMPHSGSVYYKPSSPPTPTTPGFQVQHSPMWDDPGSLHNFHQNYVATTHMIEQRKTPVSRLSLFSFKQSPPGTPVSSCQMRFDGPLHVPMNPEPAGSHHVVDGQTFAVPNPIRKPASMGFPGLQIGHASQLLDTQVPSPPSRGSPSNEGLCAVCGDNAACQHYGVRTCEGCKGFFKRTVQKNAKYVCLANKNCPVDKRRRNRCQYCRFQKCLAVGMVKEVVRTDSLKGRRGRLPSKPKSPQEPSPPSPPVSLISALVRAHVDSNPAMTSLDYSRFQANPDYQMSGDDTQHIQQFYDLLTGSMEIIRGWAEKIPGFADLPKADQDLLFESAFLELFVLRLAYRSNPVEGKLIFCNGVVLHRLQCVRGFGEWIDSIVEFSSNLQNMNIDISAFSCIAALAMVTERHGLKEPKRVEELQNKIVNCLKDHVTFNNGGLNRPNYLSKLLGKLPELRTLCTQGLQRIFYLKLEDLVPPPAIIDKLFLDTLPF
# UniProt P03372, whole entry, looked up: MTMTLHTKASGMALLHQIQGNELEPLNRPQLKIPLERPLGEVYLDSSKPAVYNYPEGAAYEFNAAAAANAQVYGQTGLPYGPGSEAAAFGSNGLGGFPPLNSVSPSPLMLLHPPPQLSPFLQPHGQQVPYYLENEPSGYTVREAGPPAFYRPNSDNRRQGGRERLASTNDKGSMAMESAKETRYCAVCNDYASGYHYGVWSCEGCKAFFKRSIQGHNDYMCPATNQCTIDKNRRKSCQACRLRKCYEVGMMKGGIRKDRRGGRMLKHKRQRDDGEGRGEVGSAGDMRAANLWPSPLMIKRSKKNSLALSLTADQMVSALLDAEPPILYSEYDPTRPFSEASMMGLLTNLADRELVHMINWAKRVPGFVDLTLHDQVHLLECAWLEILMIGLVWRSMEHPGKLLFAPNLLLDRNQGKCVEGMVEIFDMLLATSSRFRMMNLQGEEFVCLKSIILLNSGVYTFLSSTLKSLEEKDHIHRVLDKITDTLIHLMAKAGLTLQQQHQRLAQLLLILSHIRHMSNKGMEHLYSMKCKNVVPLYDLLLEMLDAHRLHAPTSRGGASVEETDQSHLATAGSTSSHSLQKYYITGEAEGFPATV
# UniProt Q07869: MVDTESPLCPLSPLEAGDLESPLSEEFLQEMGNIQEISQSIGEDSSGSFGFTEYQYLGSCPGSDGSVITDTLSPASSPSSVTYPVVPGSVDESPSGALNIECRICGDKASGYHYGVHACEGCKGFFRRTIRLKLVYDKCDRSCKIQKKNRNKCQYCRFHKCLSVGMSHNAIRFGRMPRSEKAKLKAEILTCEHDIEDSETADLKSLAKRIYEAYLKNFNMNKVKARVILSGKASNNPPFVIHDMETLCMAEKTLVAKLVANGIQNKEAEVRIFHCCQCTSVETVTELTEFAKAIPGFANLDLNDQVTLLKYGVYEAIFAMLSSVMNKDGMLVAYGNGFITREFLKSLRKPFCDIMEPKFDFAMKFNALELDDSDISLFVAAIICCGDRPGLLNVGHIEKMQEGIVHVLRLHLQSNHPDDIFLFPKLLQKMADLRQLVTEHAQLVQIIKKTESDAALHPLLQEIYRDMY
# UniProt P11474: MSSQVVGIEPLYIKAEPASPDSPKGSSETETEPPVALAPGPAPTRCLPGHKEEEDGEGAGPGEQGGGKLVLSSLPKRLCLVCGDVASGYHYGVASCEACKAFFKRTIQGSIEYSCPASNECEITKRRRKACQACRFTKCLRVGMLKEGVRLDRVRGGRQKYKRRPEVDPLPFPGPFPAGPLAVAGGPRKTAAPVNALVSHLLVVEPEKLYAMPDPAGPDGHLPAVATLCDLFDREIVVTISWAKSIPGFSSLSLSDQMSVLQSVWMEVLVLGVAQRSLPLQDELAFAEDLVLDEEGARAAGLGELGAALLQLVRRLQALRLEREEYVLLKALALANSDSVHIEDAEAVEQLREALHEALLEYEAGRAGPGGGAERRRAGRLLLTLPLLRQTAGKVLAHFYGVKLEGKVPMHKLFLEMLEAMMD
# This list was built around the results that the source calls inconclusive (neither active nor inactive); the mix of calls is not that of the screen. For some assays here: A potency beside an inconclusive call is a rough fit, not a confirmed value. Active and inactive are the calls of the source. The calls were made as follows: active = hit-call score of the fitted dose curve at least 0.9, where 1 is the maximum; inconclusive = response in the unintended direction; inactive = score below 0.9.
# Tests used:
# [1] = ATG_GAL4_TRANS: Attagene TRANS-FACTORIAL HepG2 Assay for GAL4 (Internal Marker) (AID 2282976); settings: HepG2 Attagene TRANS GAL4 internal marker reporter
# In short: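 RT-PCR/capillary electrophoresis readout of reporter mRNA. HepG2, transient MRTU transfection (GAL4-UAS reporters), 24 h compound exposure. Background-control endpoint, positive direction vs DMSO baseline.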
# [2] = target: Bile acid receptor (Homo sapiens) (UniProt Q96RI1); assay: ATG_FXR_TRANS: Attagene TRANS-FACTORIAL HepG2 Assay for Farnesoid X Receptor (FXR) (AID 2282979); settings: HepG2 Attagene TRANS FXR-GAL4 reporter transcription;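 also: hits raise reporter mRNA above DMSO so AC50 marks FXR activation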
# In short: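 Read-out: fluorescent reporter transcripts quantified by capillary electrophoresis after RT-PCR of total RNA. Source cells were HepG2 transiently carrying chimeric NR-GAL4 plus GAL4-UAS reporter units, dosed 24 h. Activity fitted upward relative to DMSO baseline.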
# [3] = target: Oxysterols receptor LXR-alpha (Homo sapiens) (UniProt Q13133); assay: ATG_LXRa_TRANS: Attagene TRANS-FACTORIAL HepG2 Assay for human Liver X Receptor alpha (LXRa) (AID 2282980); settings: HepG2 Attagene TRANS reporter, LXRa transactivation
# In short: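 Read-out: reporter transcript levels by RT-PCR plus capillary electrophoresis, fluorescence intensity. Transiently transfected HepG2, exogenous NR-GAL4 chimera, GAL4-UAS reporters; 24 h compound exposure. Activity = increase over DMSO negative control.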
# [4] = target: Hepatocyte nuclear factor 4-alpha (Homo sapiens) (UniProt P41235); assay: ATG_HNF4a_TRANS: Attagene TRANS-FACTORIAL HepG2 Assay for human Hepatocyte Nuclear Factor 4 alpha (HNF4a) (AID 2282982); settings: HepG2 HNF4a transactivation reporter, mRNA readout
# In short: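 Activity of an exogenous HNF4a–Gal4 fusion scored as induced GAL4-UAS reporter transcripts after 24 h chemical exposure of transfected human HepG2 cells. Read-out via RT-PCR with 6-FAM labelling and capillary electrophoresis; rise over DMSO baseline.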
# [5] = target: human Retinoic Acid Receptor beta (RARb), RARB (gene 5915) (UniProt P10826); assay: ATG_RARb_TRANS: Attagene TRANS-FACTORIAL HepG2 Assay for human Retinoic Acid Receptor beta (AID 2283004)
# In short: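 Readout is reporter mRNA induction: RNA reverse-transcribed, PCR-amplified, FAM-labelled, HpaI-cut and resolved by capillary electrophoresis. Transiently transfected HepG2 cells carrying exogenous NR–Gal4 chimeras were dosed for 24 h; activity fitted upward relative to DMSO.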
# [6] = target: Retinoic acid receptor alpha (Homo sapiens) (UniProt P10276); assay: ATG_RARa_TRANS: Attagene TRANS-FACTORIAL HepG2 Assay for human Retinoic Acid Receptor alpha (RARa) (AID 2283005);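 as to AC50: potency for increased reporter signal meaning RARa activation over DMSO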
# In short: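 Reporter transcripts, measured by RT-PCR with fluorescent labeling and capillary electrophoresis after 24 h dosing, reflect activity of an exogenous human RARa–GAL4 fusion in transiently transfected HepG2. Fitted for increase relative to DMSO.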
# [7] = ATG_M_19_TRANS: Attagene TRANS-FACTORIAL HepG2 Assay for M19 Transcription Factor (Internal Marker) (AID 2282974); settings: HepG2 Attagene TRANS-FACTORIAL M19 internal marker reporter
# In short: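 Measured here: internal-marker reporter transcript from HepG2 cells transfected with MRTUs, harvested at 24 h. cDNA PCR products were 6-FAM labelled by primer extension, cut with HpaI for 2 h at 37 C, and resolved by CE.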
# [8] = target: Oxysterols receptor LXR-beta (Homo sapiens) (UniProt P55055); assay: ATG_LXRb_TRANS: Attagene TRANS-FACTORIAL HepG2 Assay for human Liver X Receptor beta (LXRb) (AID 2282981); settings: HepG2 Attagene TRANS GAL4-LXRb reporter, mRNA
# In short: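 After 24 h chemical treatment of transfected HepG2 cells carrying exogenous NR-Gal4 chimeras, reporter mRNA was quantified by fluorescent RT-PCR and capillary electrophoresis; activity taken as increase over DMSO controls.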
# [9] = target: Androgen receptor (Homo sapiens) (UniProt P10275); assay: ATG_AR_TRANS: Attagene TRANS-FACTORIAL HepG2 Assay for human Androgen Receptor (AR) (AID 2282973); settings: HepG2 Attagene TRANS-FACTORIAL AR reporter transcription
# In short: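 Readout is reporter transcript abundance, quantified by fluorescent RT-PCR products separated on capillary electrophoresis. Human HepG2 liver cells carried transiently transfected NR-Gal4 chimera plus GAL4-UAS reporter constructs and were dosed for 24 h; activity scored upward versus DMSO.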
# [10] = target: Estrogen-related receptor gamma (Homo sapiens) (UniProt P62508); assay: ATG_ERRg_TRANS: Attagene TRANS-FACTORIAL HepG2 Assay for human Estrogen-Related Receptor gamma (ERRg) (AID 2282977); settings: HepG2 Attagene TRANS reporter, ERRg transactivation;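 also: hits increase reporter signal over DMSO so potencies reflect activators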
# In short: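 Induction of reporter transcripts through a chimeric NR-Gal4 protein is quantified in transfected human HepG2 liver cells after 24 h chemical exposure, using RT-PCR with capillary electrophoresis detection and DMSO as baseline.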
# [11] = target: Glucocorticoid receptor (Homo sapiens) (UniProt P04150); assay: ATG_GR_TRANS: Attagene TRANS-FACTORIAL HepG2 Assay for human Glucocorticoid Receptor (GR) (AID 2282978); settings: HepG2 Attagene TRANS GR reporter, mRNA transcription;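 also: activators score as hits since higher reporter transcript over DMSO is fitted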
# In short: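 Measurement of GAL4-UAS-driven reporter mRNA in human HepG2 liver cells 24 h post-dosing, using RT-PCR with fluorescent labelling and capillary electrophoresis; the transfected constructs report exogenous NR-GAL4 chimera activity, fitted upward against DMSO.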
# [12] = ATG_M_06_TRANS: Attagene TRANS-FACTORIAL HepG2 Assay for M06 Transcription Factor (Internal Marker) (AID 2282983); settings: HepG2 Attagene TRANS M06 internal marker reporter;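 as to AC50: potency for rise in reporter mRNA above DMSO baseline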
# In short: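 Read-out: fluorescent reporter cDNA fragments resolved by capillary electrophoresis after RT-PCR and HpaI cut. Source cells were HepG2 carrying transfected multi-reporter GAL4 constructs, dosed 24 h. Increase over DMSO control analysed.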
# [13] = ATG_M_32_TRANS: Attagene TRANS-FACTORIAL HepG2 Assay for M32 Transcription Factor (Internal Marker) (AID 2282984); settings: HepG2 Attagene TRANS M32 internal marker reporter;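 as to outcome: transcript level of a background control reporter unit measured by RT-PCR and capillary electrophoresis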
# In short: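 Internal background reporter in transfected HepG2: after 24 h chemical exposure, RNA reverse-transcribed, reporter cDNA amplified, fluorescently labelled and HpaI-cut, then sized by capillary electrophoresis. Gain of signal fitted against DMSO control.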
# [14] = target: Nuclear receptor subfamily 4 group A member 2 (Homo sapiens) (UniProt P43354); assay: ATG_NURR1_TRANS: Attagene TRANS-FACTORIAL HepG2 Assay for human Nuclear Receptor Related Protein 1 (NURR1) (AID 2282985); settings: HepG2 Attagene TRANS reporter, mRNA readout
# In short: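 Reporter transcript induction, measured by RT-PCR with fluorescent labelling, HpaI digestion and capillary electrophoresis, after 24 hr dosing of human HepG2 cells transiently expressing an exogenous NR-Gal4 fusion with GAL4-UAS-driven reporters; DMSO as baseline.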
# [15] = target: Estrogen receptor (Homo sapiens) (UniProt P03372); assay: ATG_ERa_TRANS: Attagene TRANS-FACTORIAL HepG2 Assay for human Estrogen Receptor alpha (ERa) (AID 2282970); settings: HepG2 Attagene TRANS ERa GAL4 reporter, mRNA
# In short: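 Reporter mRNA induction after 24 hours, detected by fluorescent RT-PCR and capillary electrophoresis, gives the read-out. Cells are HepG2 transiently transfected with GAL4-UAS reporter transcription units responding to chimeric NR-Gal4. Activity is taken as gain of signal over DMSO baseline.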
# [16] = target: human Peroxisome Proliferator-activated Receptor alpha (PPARa), PPARA (gene 5465) (UniProt Q07869); assay: ATG_PPARa_TRANS: Attagene TRANS-FACTORIAL HepG2 Assay for human Peroxisome Proliferator-activated Receptor alpha (PPARa) (AID 2283001);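 as to AC50: potency for gain of reporter signal over DMSO so agonist or activator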
# In short: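 Reporter transcripts quantified by RT-PCR plus capillary electrophoresis after 24 h treatment, fitted upward relative to DMSO. Cells: human HepG2 transiently carrying multiple GAL4-UAS reporter units driven by NR-Gal4 chimeras.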
# [17] = target: Steroid hormone receptor ERR1 (Homo sapiens) (UniProt P11474); assay: ATG_ERRa_TRANS: Attagene TRANS-FACTORIAL HepG2 Assay for human Estrogen-Related Receptor alpha (ERRa) (AID 2282971); settings: HepG2 Attagene TRANS reporter, ERRa transactivation
# In short: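 Transfected HepG2, 24 h dosing, ERRa-Gal4 chimera driving GAL4-UAS reporter. Readout: reporter mRNA via RT-PCR plus capillary electrophoresis (fluorescence). Positive direction vs DMSO control.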
smiles,measurement,setting,value
Cc1[nH]nc2c1N=C(c1ccccc1Cl)c1cc([N+](=O)[O-])ccc1N2,AC50,[1],inconclusive: 1.97 µM
same,outcome,[2],inactive
same,outcome,[3],inactive
same,AC50,[4],inconclusive: 100 µM
same,AC50,[5],inconclusive: 2.75 µM
same,AC50,[6],inconclusive: 6.99 µM
CC(C)=CCl,AC50,[7],inconclusive: 100 µM
same,AC50,[1],inconclusive: 1.01 µM
same,AC50,[3],inconclusive: 8.31 µM
same,outcome,[4],inactive
same,AC50,[5],inconclusive: 16.2 µM
same,AC50,[6],inconclusive: 100 µM
CC1=CC[C@H](C(C)C)C=C1,outcome,[7],inactive
same,outcome,[1],inactive
same,outcome,[3],inactive
same,outcome,[8],inactive
Nc1cc(Cl)c(O)c(Cl)c1,AC50,[9],inconclusive: 16.3 µM
same,outcome,[7],inactive
same,AC50,[1],inconclusive: 100 µM
same,outcome,[10],inactive
same,AC50,[11],inconclusive: 181 µM
same,outcome,[8],inactive
same,AC50,[4],active: 100 µM
same,AC50,[12],inconclusive: 0.252 µM
same,outcome,[13],inactive
same,outcome,[14],inactive
CN(C)CCCN1c2ccccc2Sc2ccc(Cl)cc21,AC50,[17],inconclusive: 11.1 µM
same,AC50,[7],inconclusive: 20 µM
same,AC50,[1],inconclusive: 11.1 µM
same,AC50,[10],inconclusive: 11.1 µM
same,AC50,[3],inconclusive: 11.1 µM
same,outcome,[8],inactive
same,AC50,[4],inconclusive: 11.1 µM
same,outcome,[12],inactive
same,outcome,[13],inactive
same,outcome,[16],inactive
CN(N=O)C(=O)N[C@@H]1[C@@H](O)[C@H](O)[C@@H](CO)O[C@@H]1O,AC50,[15],inconclusive: 100 µM
same,outcome,[7],inactive
same,AC50,[1],inconclusive: 15.2 µM
same,AC50,[11],inconclusive: 100 µM
same,AC50,[3],inconclusive: 100 µM
same,AC50,[8],inconclusive: 0.0823 µM
same,outcome,[12],inactive
same,AC50,[14],inconclusive: 100 µM
same,AC50,[5],inconclusive: 100 µM

# 4 records drawn at random from the list so far, as already listed:
smiles,measurement,setting,value
Nc1cc(Cl)c(O)c(Cl)c1,outcome,[7],inactive
CN(C)CCCN1c2ccccc2Sc2ccc(Cl)cc21,AC50,[1],inconclusive: 11.1 µM
same,AC50,[7],inconclusive: 20 µM
CC(C)=CCl,AC50,[7],inconclusive: 100 µM
